Measurements taken from article doi:10.1101/2025.04.21.649502.
Like-named read-outs stand apart in the source and are kept apart here. Results are given in words; binding and its absence hold for the method and conditions named. Binding seen in cells or lysates may run through a third protein. Some results given as binding are weak or reduced against the parent protein; the word gives no strength. For some of these results: Tags and fused reporters may be left off the sequences shown.

Chains of the proteins cited; added tags and fusions are not shown.
UniProt Q8IWR0: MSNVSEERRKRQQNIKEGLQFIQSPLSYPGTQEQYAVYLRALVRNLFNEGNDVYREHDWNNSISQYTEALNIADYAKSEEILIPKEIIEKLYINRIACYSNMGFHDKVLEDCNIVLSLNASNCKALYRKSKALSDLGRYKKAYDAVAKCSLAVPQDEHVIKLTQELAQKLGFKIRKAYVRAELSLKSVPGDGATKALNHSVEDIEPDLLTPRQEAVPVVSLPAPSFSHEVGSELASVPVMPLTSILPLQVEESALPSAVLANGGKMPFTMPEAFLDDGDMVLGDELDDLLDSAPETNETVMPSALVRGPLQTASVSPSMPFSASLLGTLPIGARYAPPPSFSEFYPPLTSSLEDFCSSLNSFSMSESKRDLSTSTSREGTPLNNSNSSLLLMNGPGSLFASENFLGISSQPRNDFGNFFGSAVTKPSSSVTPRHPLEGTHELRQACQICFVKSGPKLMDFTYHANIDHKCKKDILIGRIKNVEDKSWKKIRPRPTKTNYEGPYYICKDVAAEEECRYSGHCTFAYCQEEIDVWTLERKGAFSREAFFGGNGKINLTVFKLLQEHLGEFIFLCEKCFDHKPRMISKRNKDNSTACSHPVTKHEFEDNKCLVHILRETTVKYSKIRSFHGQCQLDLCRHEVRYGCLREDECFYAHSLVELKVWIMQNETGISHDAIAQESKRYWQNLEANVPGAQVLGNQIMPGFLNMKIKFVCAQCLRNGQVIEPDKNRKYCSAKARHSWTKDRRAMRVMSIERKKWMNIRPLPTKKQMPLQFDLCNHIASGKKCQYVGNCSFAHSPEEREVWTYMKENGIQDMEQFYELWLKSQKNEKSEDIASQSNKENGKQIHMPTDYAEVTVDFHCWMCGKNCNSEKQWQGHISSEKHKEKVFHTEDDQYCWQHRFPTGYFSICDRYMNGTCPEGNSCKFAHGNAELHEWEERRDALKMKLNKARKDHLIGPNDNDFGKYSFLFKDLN
UniProt A5YKK6: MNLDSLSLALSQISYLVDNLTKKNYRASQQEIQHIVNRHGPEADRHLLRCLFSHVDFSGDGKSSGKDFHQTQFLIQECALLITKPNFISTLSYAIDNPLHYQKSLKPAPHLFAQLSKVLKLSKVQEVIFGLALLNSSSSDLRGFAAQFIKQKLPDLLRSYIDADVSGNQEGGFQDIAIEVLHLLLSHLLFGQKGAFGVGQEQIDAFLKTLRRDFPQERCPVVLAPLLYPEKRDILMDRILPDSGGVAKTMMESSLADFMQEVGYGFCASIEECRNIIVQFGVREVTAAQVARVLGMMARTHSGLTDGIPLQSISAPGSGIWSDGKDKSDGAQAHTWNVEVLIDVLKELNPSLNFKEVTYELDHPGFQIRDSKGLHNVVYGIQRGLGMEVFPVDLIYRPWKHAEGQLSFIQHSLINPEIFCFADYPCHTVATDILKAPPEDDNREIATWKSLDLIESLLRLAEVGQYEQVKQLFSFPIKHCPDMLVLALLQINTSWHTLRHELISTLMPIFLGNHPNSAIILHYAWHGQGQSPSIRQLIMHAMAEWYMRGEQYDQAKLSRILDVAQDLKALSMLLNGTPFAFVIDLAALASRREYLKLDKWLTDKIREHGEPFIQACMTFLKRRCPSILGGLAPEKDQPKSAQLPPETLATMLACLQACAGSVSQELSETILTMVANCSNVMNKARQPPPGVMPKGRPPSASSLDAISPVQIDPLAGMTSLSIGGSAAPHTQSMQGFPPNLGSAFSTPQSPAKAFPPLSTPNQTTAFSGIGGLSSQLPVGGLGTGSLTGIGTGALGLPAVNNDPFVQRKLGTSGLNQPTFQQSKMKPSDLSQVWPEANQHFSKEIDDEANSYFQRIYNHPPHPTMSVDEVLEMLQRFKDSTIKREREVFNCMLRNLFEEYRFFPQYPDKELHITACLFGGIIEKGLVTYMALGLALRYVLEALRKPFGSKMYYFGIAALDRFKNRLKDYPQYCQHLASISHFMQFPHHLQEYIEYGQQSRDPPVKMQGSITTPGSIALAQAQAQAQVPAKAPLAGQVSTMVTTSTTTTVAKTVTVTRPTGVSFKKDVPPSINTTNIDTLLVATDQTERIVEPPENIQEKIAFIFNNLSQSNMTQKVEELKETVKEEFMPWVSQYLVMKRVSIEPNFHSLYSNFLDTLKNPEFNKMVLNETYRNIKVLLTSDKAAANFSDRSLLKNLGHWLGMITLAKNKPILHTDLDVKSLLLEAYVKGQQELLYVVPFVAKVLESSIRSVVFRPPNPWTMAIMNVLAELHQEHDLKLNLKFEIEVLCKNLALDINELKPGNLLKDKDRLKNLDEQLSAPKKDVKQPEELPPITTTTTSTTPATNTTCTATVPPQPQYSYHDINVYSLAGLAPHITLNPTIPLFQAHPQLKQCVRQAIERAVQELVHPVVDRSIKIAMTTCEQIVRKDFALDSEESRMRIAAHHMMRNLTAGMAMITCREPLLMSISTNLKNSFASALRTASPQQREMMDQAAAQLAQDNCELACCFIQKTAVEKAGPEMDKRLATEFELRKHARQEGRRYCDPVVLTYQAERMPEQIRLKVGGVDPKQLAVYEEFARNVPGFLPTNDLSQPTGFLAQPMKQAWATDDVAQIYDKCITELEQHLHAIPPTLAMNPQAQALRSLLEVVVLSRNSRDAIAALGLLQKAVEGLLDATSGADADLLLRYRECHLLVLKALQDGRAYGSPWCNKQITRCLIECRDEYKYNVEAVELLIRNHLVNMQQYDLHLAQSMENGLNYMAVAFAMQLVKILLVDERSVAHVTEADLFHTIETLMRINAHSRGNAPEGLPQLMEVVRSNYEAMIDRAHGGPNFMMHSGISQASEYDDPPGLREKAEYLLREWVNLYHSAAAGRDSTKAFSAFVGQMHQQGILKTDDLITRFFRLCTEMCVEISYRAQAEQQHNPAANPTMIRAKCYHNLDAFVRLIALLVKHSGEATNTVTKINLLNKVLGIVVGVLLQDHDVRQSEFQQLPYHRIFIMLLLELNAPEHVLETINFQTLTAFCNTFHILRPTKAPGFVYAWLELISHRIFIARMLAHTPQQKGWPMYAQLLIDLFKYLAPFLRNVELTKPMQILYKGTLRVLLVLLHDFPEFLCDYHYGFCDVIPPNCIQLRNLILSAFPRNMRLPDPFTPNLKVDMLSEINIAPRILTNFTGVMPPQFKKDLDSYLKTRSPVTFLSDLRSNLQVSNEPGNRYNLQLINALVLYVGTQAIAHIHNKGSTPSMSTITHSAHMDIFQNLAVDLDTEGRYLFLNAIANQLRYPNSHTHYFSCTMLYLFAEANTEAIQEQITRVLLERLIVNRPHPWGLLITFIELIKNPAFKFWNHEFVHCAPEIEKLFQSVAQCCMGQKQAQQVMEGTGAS
UniProt O75175: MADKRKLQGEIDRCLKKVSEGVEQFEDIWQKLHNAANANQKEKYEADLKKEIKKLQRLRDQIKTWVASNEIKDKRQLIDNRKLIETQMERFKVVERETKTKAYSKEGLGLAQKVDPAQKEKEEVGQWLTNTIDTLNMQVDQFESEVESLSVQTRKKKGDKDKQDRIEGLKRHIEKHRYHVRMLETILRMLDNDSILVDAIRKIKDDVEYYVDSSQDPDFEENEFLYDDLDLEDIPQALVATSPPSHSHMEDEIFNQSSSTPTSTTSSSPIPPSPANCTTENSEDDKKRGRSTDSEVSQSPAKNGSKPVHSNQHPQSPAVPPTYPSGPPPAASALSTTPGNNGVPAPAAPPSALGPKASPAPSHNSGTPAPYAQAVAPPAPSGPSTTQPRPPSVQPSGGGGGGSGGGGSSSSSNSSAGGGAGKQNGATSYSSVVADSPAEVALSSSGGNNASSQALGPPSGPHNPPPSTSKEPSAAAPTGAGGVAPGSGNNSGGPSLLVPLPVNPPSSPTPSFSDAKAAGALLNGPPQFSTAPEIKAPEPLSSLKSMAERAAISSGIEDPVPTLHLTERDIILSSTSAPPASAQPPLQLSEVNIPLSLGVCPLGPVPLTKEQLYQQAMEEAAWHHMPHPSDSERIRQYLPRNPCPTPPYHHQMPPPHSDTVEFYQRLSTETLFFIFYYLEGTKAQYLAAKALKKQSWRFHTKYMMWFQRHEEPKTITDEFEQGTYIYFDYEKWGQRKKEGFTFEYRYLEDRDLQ
UniProt Q9UIV1: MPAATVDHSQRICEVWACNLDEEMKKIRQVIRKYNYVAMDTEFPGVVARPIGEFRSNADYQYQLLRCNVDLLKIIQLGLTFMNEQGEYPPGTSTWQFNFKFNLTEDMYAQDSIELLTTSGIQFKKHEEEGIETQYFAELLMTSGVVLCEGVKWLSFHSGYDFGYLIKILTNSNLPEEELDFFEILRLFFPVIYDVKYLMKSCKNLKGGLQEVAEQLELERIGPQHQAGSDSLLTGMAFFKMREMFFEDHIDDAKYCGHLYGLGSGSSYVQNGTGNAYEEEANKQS
UniProt O60573: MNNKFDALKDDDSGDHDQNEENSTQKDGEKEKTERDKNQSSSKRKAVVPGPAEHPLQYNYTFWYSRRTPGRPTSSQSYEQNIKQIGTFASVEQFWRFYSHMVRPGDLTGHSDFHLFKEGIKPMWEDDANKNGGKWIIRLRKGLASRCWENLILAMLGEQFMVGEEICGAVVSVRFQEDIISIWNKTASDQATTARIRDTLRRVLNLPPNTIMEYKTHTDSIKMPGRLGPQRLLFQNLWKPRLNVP

Assays:
Test in all cases: co-IP
[1] = target: Flag/HA-ZC3H7A (Zinc Finger CCCH-Type Containing 7A) (human) (UniProt Q8IWR0)
[2] = target: T1, Flag/HA-ZC3H7B (Zinc Finger CCCH-Type Containing 7B) (human) (UniProt Q9UGR2)
T1 sequence: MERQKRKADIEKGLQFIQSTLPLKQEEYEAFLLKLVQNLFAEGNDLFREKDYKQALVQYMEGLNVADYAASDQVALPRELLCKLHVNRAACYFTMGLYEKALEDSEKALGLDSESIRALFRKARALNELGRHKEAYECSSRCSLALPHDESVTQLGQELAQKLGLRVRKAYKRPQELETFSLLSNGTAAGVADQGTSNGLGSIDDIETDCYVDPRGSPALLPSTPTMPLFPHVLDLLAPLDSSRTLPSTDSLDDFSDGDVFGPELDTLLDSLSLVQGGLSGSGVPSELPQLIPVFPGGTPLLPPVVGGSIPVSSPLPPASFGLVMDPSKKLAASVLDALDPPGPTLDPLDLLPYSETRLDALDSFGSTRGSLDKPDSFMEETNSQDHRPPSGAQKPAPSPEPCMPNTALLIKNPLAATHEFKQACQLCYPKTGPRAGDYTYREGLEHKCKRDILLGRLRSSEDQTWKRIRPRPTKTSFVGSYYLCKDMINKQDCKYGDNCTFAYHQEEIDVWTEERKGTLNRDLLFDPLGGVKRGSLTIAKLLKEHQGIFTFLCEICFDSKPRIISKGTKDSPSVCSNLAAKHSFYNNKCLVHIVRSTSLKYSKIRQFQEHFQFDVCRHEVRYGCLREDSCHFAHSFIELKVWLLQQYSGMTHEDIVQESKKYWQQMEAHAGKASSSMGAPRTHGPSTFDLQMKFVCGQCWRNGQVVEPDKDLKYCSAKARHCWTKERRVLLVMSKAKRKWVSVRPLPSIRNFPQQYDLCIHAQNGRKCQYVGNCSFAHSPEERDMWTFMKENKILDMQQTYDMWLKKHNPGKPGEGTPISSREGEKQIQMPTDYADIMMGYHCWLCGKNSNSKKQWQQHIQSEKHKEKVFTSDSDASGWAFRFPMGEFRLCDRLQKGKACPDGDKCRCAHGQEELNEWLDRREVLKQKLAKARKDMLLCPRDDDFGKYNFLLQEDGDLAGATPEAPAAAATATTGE

[3] = target: Flag/HA-ZC3H7A (Zinc Finger CCCH-Type Containing 7A) (human) (UniProt Q8IWR0); remark: listed apart in the source
[4] = target: T1, Flag/HA-ZC3H7B (Zinc Finger CCCH-Type Containing 7B) (human); remark: listed apart in the source

Row | Molecule | binding [1] | binding [2] | binding [3] | binding [4]
1 | CNOT1 (from UniProt A5YKK6 1-2376) | binds | binds |  | 
2 | CNOT3 (from UniProt O75175 1-753) | binds | binds |  | 
3 | CNOT7 (from UniProt Q9UIV1 1-285) | binds | binds |  | 
4 | 4EHP (eIF4E Homologous Protein) (from UniProt O60573 1-245) | binds | binds |  | 
5 | Grb10-interacting GYF protein 2 (GIGYF2) (protein, UniProt Q6Y7W6 1-1299) MAAETQTLNFGPEWLRALSSGGSITSPPLSPALPKYKLADYRYGREEMLALFLKDNKIPSDLLDKEFLPILQEEPLPPLALVPFTEEEQRNFSMSVNSAAVLRLTGRGGGGTVVGAPRGRSSSRGRGRGRGECGFYQRSFDEVEGVFGRGGGREMHRSQSWEERGDRRFEKPGRKDVGRPNFEEGGPTSVGRKHEFIRSESENWRIFREEQNGEDEDGGWRLAGSRRDGERWRPHSPDGPRSAGWREHMERRRRFEFDFRDRDDERGYRRVRSGSGSIDDDRDSLPEWCLEDAEEEMGTFDSSGAFLSLKKVQKEPIPEEQEMDFRPVDEGEECSDSEGSHNEEAKEPDKTNKKEGEKTDRVGVEASEETPQTSSSSARPGTPSDHQSQEASQFERKDEPKTEQTEKAEEETRMENSLPAKVPSRGDEMVADVQQPLSQIPSDTASPLLILPPPVPNPSPTLRPVETPVVGAPGMGSVSTEPDDEEGLKHLEQQAEKMVAYLQDSALDDERLASKLQEHRAKGVSIPLMHEAMQKWYYKDPQGEIQGPFNNQEMAEWFQAGYFTMSLLVKRACDESFQPLGDIMKMWGRVPFSPGPAPPPHMGELDQERLTRQQELTALYQMQHLQYQQFLIQQQYAQVLAQQQKAALSSQQQQQLALLLQQFQTLKMRISDQNIIPSVTRSVSVPDTGSIWELQPTASQPTVWEGGSVWDLPLDTTTPGPALEQLQQLEKAKAAKLEQERREAEMRAKREEEERKRQEELRRQQEEILRRQQEEERKRREEEELARRKQEEALRRQREQEIALRRQREEEERQQQEEALRRLEERRREEEERRKQEELLRKQEEEAAKWAREEEEAQRRLEENRLRMEEEAARLRHEEEERKRKELEVQRQKELMRQRQQQQEALRRLQQQQQQQQLAQMKLPSSSTWGQQSNTTACQSQATLSLAEIQKLEEERERQLREEQRRQQRELMKALQQQQQQQQQKLSGWGNVSKPSGTTKSLLEIQQEEARQMQKQQQQQQQHQQPNRARNNTHSNLHTSIGNSVWGSINTGPPNQWASDLVSSIWSNADTKNSNMGFWDDAVKEVGPRNSTNKNKNNASLSKSVGVSNRQNKKVEEEEKLLKLFQGVNKAQDGFTQWCEQMLHALNTANNLDVPTFVSFLKEVESPYEVHDYIRAYLGDTSEAKEFAKQFLERRAKQKANQQRQQQQLPQQQQQQPPQQPPQQPQQQDSVWGMNHSTLHSVFQTNQSNNQQSNFEAVQSGKKKKKQKMVRADPSLLGFSVNASSERLNMGEIETLDDY |  |  | binds | binds
